This data set in a line: ITC characterization of interaction with MIL-100. The settings on record: aqueous suspension of MIL-100 1.5 mg/ml.

For the compound `OC[C@H]1O[C@@H]2O[C@H]3[C@H](O)[C@@H](O)[C@@H](O[C@H]4[C@H](O)[C@@H](O)[C@@H](O[C@H]5[C@H](O)[C@@H](O)[C@@H](O[C@H]6[C@H](O)[C@@H](O)[C@@H](O[C@H]7[C@H](O)[C@@H](O)[C@@H](O[C@H]8[C@H](O)[C@@H](O)[C@@H](O[C@H]1[C@H](O)[C@H]2O)O[C@@H]8CO)O[C@@H]7CO)O[C@@H]6CO)O[C@@H]5CO)O[C@@H]4CO)O[C@@H]3CO` [βCD, β cyclodextrin], the “ITC signal on titration into MIL-100 suspension” value was “no signal was observed”. The entry for β cyclodextrin phosphate [βCDP] is “complex reaction, involving exothermic and endothermic effects”.

Source of the values: patent US10159738B2, “Organic-inorganic hybrid solid having a modified outer surface” (CENTRE NATIONAL DE LA RECHERCHE SCIENTIFIQUE-CNRS, priority 2012, dated 2018).
